For the assay, the target named is Stv. In words: bio-layer interferometry, streptavidin sensor; 'anti-Stv.' is read as clone A against streptavidin without ubiquitin [panel B, Clone A].

No constants are given. Whether binding was seen depends on the method and setting. Where a sequence is shown, tags or fusion partners need not be part of it.

B1: anti-ubiquitin monobody clone A, Monobody-Nus tag-His6 recombinant protein (designed binder, not shown: small tags and cut ends)
chain: LEVVEASPTSIQISWDAYPYYIIGETVRYYRITYGETGGNSPVQEFTVPGSKSTATISGLKPGVDYTITVYAVTYYGNAFWGWPPISINYRTHHHHHH
Consider B1, for which the binding entry is “no binding (tested: 20 nM)”.

Values taken from patent publication US20250129143A1.
